In PubChem BioAssay AID1347426 (Functional Genomics Laboratory (NCATS/FGL), 2020):
Screen size: about 31,000 sequences; about 1,400 (4.5%) were called active.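 Rule for the calls: active = median seed-adjusted z-score above 1 or below -1; inactive = the rest.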 This is one part of the list.

test: Novel Modifiers of Survival Motor Neuron (SMN) Protein: Gene Identification via Genome-wide siRNA Screen; conditions: HEK293T SMN2-luciferase reporter, siRNA knockdown, 72 h; actives lie on both sides;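 note: luminescence tracks full-length SMN protein made from the SMN2 reporter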
Method in brief: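 siRNA screen, 10418 genes ×3 siRNAs; 1 pmol/well, lipid reverse transfection into HEK293T SMN2-luc reporter line. 72 h, 37 °C, 5% CO2; ONE-Glo readout. Data: neg-ctrl normalized, log10, MAD; hit = MAD >1.0 or < -1.0.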

| Sequence | median seed-adjusted z-score |
| --- | --- |
| CGAGAUACGUUACGACGGATT against TFAP2D | inactive: 0 |
| CCGGAAAGCUUUCCAAGUATT against MMP12 | inactive: 0.0476 |
| CGACCUAAUCAUUCACAGUTT against CYP26C1 | inactive: -0.276 |
| CCAGCAUACUUACUUAUCUTT against ZNF420 | inactive: -0.5 |
| GCAUUUUACGAAUUCACCUTT against LATS2 | inactive: -0.245 |
| AGAUGAAUUAUGGAGGAUUTT against TCEB3C | inactive: 0.382 |
| CUACAUUCCGUGUUCAUAATT against ZNF552 | inactive: 0.437 |
| CAAGUGGAAUUGAUGCGAATT against PRC1 | inactive: -0.0195 |
| AAUUCGAGCUGGUGCCAUCTT against MYCL1 | inactive: 0.0658 |
| GGUCUACUGCACUCGGGAATT against SPINK6 | inactive: 0.275 |
| CAGCUACGGAAGAACCUGATT against PHF21A | inactive: 0.179 |
| AGAGAAGACCCAACAGUGATT against MEF2B | inactive: 0.263 |
| GGUAUUACUUUGCAAUCGATT against CACNA2D1 | inactive: -0.541 |
| GGAAAACGACCAAAACGAATT against BBX | inactive: -0.0824 |
| CCAACCAACAGAUCCUUAATT against RAI1 | inactive: 0.113 |
| GGACAGAAGUGCAACUGGATT against CGREF1 | inactive: 0.0743 |
| GACAUUAAAGUAUCAGUAATT against PDHX | inactive: 0.21 |
| GCCGUGACAUGAUAGGCAUTT against DDX41 | inactive: -0.611 |
| GUAAGUCCCUUUAUUCACATT against GFRA4 | active: -1.59 |
| CGCGGUUUAUCGAGGAUAATT against SALL3 | inactive: -0.133 |
| AGCUGGUUCACGACAUGAATT against TRIP6 | active: 1.03 |
| GGACUAUCUGGAGAUGUUUTT against RNF112 | inactive: -0.42 |

Two entries from above, comma-delimited:
Sequence,median seed-adjusted z-score
AAUUCGAGCUGGUGCCAUCTT against MYCL1,inactive: 0.0658
GGUCUACUGCACUCGGGAATT against SPINK6,inactive: 0.275

(list continues)

| Sequence | median seed-adjusted z-score |
| --- | --- |
| GGGUGGUAUUUCCAACAUUTT against CCT4 | inactive: -0.413 |
| GACCUUCCCUACGAUUAUATT against HLCS | inactive: 0.0646 |
| CCAUGACUCCUGACUACCATT against KRT32 | inactive: -0.000598 |
| GGAGUCUUUUGAAACGGAUTT against SHPRH | inactive: 0.169 |
| CAAGCAAGAUAAUUAUAAUTT against ASCC3 | inactive: -0.192 |
| GACCUUCAGUCAUACAUCATT against ZNF525 | inactive: 0.134 |
| GCAUGUUAAUGGGUUUAAUTT against GNAS | inactive: -0.531 |
| GGCUGAAAACGGAGCACAATT against PCDHB16 | inactive: -0.523 |
| GUCUGGUUGUACUAGCAAATT against ACAT1 | inactive: -0.848 |
| GCUUUUAACCAUUCUGCAATT against ZNF93 | inactive: 0.502 |
| GGUUUAUAAUUCCGAAAAATT against AGA | inactive: -0.0433 |
| GGAGAAAACAGUAAAGGCATT against SRY | inactive: -0.949 |
| ACGGCUCUGUGGACACAGATT against GPR78 | inactive: 0.607 |
| GUGUGAUUCUUGGAGCAAATT against PLD2 | inactive: -0.743 |
| GACUAUUACCAAACCAUGUTT against LEPRE1 | inactive: 0.121 |
| CCACCAACCGGAAGCUGAATT against POR | inactive: 0.189 |
| GCAGGAGUUUGUUUAAUGATT against UGT1A10 | inactive: 0.286 |
| GAACUGCCCUUGGUUGAGATT against AP4E1 | inactive: 0 |
| GGUAGACUGUCAUCGUGAATT against RAD50 | inactive: 0.266 |
| AGAAAGUUCAUAAAUACAATT against RASSF3 | inactive: -0.323 |
| CUAGGACUAUUAUCCAGGATT against SLC26A8 | inactive: -0.145 |
| GAGAUGGAUUCGAAGAACATT against DHRSX | inactive: -0.686 |

| Sequence | median seed-adjusted z-score |
| --- | --- |
| AGAUGUGAGUGACUUGGAATT against APOF | inactive: 0.0982 |
| CACCAUAUGUAGUCUCAUUTT against ORC3L | inactive: -0.254 |
| GUGCUGAUAUUGAUGCGUUTT against PAPOLA | inactive: 0 |
| GAAUCGUGAGGAUCGUAUATT against PLCG1 | inactive: -0.336 |
| GGCUGUACUUCGUCAUGGATT against PRKCA | inactive: -0.249 |
| GCUUUUGCAAAGACAACUATT against ASPA | inactive: -0.138 |
| GCAACUCAGUUCACGCAAATT against SENP8 | inactive: 0 |
| GAUGGACUCUUCAAAUUCATT against CYP27C1 | inactive: 0.0462 |
| CUACAGAUGUUCAUCGGCATT against NFATC4 | inactive: 0 |
| CCGUUCACCUUGUCACUGATT against TEAD2 | inactive: 0.96 |
| GCAGCCGAAGAUGAACUAATT against PMS2 | inactive: -0.162 |
| GAGUGGUAACUUCAAUUUUTT against CPA2 | inactive: 0.0374 |
| CCUUACCUAUGGAAUCAUATT against SLC16A10 | inactive: -0.205 |
| CGAGUGCAGUGCCUCCAAUTT against NTM | inactive: 0 |
| CGUUAUCAGCAGAUAAUGATT against TRPC3 | inactive: -0.0856 |
| GACUGAUCUUCUUCCUAAATT against SULT1B1 | inactive: -0.115 |
| CAGCGAUCAUUCAUACCUATT against ZNF597 | inactive: 0.366 |
| CGGCCCUCCUCUGAAAAGATT against POU4F2 | active: 1.46 |
| CUGCUUAUAUCAAAACGGATT against EGF | inactive: 0.00831 |
| GAGGUAAGAUGGAUGAAGATT against ACSM1 | inactive: 0.658 |
| CCCUUUACGUCAUCCCUGATT against RELA | inactive: -0.646 |
| GGAUGCUGCUCUACUCAAATT against SENP3 | inactive: 0.543 |

| Sequence | median seed-adjusted z-score |
| --- | --- |
| GGCUCCUUAUAUGACUAUUTT against ACVR1C | inactive: -0.0005 |
| GGAGAAAUCAGCUACAGGATT against SRD5A2 | inactive: 0.185 |
| GGAUCUACCUGUCACUACUTT against ARHGEF2 | inactive: 0.0929 |
| CCUCGUCCCUGUGGAAAGATT against NOS3 | inactive: 0.212 |
| CAAAGACAGCUUUCACAGUTT against MAX | inactive: 0.0949 |
| CCUACACCAUGAUCGGAAATT against KIF26B | inactive: -0.153 |
| GCAUCGUACAAAAACGCAUTT against SPON1 | inactive: 0.248 |
| CAUUGUCUCCUGUUCGAUUTT against SGK269 | inactive: -0.171 |
| GCGUACAGCGUGUCCAUGATT against SLC16A5 | inactive: -0.151 |
| GGACUUAACGGUAUCCAAATT against PCDHB10 | inactive: -0.09 |
| GCAGGAGAUUCAUCGAAGATT against DPP10 | inactive: -0.0478 |
| ACAAGGCACUUGUCACUAUTT against KCNJ11 | inactive: -0.567 |
| GCAUCACGAUUAAUGUUCUTT against TGM5 | inactive: 0.0181 |
| GCAUGUCCAUCUACUCGGATT against GRIN1 | inactive: -0.137 |
| CACACUUCCUACGACAAAATT against PIP4K2A | inactive: 0.469 |
| GAGAAAAGCUAGACAAAAUTT against IFIT1 | inactive: -0.489 |
| GCCUAGACCACAUAAUGAATT against IL17RB | inactive: -0.464 |
| CUAAAAGACCGAACAAUAATT against HNRPUL1 | inactive: -0.047 |
| CGUGAUUAGUGGAGUACUATT against CENPC1 | inactive: 0 |
| CCCGUACUGUUUAACAAUUTT against HERC3 | inactive: -0.0884 |
| CAGCCUUAUAUAUCAAAGATT against ZNF674 | inactive: 0.234 |
| CCAGUAUGAUGGGUCCAUATT against CADM4 | inactive: 0.16 |

| Sequence | median seed-adjusted z-score |
| --- | --- |
| GCUUUGUUGAGUUCUACUATT against TREH | inactive: 0.396 |
| CCAAGAUUGCUGACUCUAATT against FLOT2 | inactive: 0.961 |
| CCCUCUUUGGUCUAACUCATT against HOXA3 | inactive: 0.315 |
| CCAGAUUUAUGAGAAGCAUTT against MCM3 | inactive: 0.339 |
| GGGACUCAAGUGAAAGUGATT against CD300LB | inactive: -0.466 |
| GGUUUACCAUAGUUACUUUTT against TXNRD1 | inactive: 0.485 |
| CAACGAUAGAAGAUUCCUATT against RAP1A | inactive: 0.276 |
| CCAGAAAACUUGCGAAACATT against RFX4 | inactive: -0.0226 |
| AGAGUUCACUGAAACGGAATT against CD40 | inactive: 0.275 |
| GGAAAUCGGCCUACAAGAUTT against LONP1 | inactive: -0.291 |
| CAGGUCAAGUGUUACCGAUTT against ZCCHC13 | inactive: -0.297 |
| GCAACUCCAGCCUAAUUAATT against ZNF792 | inactive: 0 |
| GGAUAGCACUUGUCCUGAATT against ZFY | inactive: -0.128 |
| AAGUUUUACUCAAUCCAAATT against PHOX2A | inactive: 0.466 |
| AGCUCAACCGGUUUAAUAATT against SLC9A1 | inactive: 0 |
| GCGUCAGACUUUUUCACCATT against TIA1 | inactive: -0.188 |
| CCACCGUGUUGCAGAUAUATT against SND1 | inactive: -0.0434 |
| CUAAACCUCUGAUCUCUUATT against SOCS7 | inactive: 0.179 |
| CUCCUUUCCUGAUUACUUUTT against ZNF672 | inactive: 0.35 |

Reformatted: results already given
Sequence	median seed-adjusted z-score
CACACUUCCUACGACAAAATT against PIP4K2A	inactive: 0.469
GAGAAAAGCUAGACAAAAUTT against IFIT1	inactive: -0.489
GCCUAGACCACAUAAUGAATT against IL17RB	inactive: -0.464
CUAAAAGACCGAACAAUAATT against HNRPUL1	inactive: -0.047
CGUGAUUAGUGGAGUACUATT against CENPC1	inactive: 0
CCCGUACUGUUUAACAAUUTT against HERC3	inactive: -0.0884
CAGCCUUAUAUAUCAAAGATT against ZNF674	inactive: 0.234
CCAGUAUGAUGGGUCCAUATT against CADM4	inactive: 0.16
GCUUUGUUGAGUUCUACUATT against TREH	inactive: 0.396
CCAAGAUUGCUGACUCUAATT against FLOT2	inactive: 0.961
CCCUCUUUGGUCUAACUCATT against HOXA3	inactive: 0.315
CCAGAUUUAUGAGAAGCAUTT against MCM3	inactive: 0.339
GGGACUCAAGUGAAAGUGATT against CD300LB	inactive: -0.466
GGUUUACCAUAGUUACUUUTT against TXNRD1	inactive: 0.485
CAACGAUAGAAGAUUCCUATT against RAP1A	inactive: 0.276
CCAGAAAACUUGCGAAACATT against RFX4	inactive: -0.0226
AGAGUUCACUGAAACGGAATT against CD40	inactive: 0.275
GGAAAUCGGCCUACAAGAUTT against LONP1	inactive: -0.291
CAGGUCAAGUGUUACCGAUTT against ZCCHC13	inactive: -0.297
GCAACUCCAGCCUAAUUAATT against ZNF792	inactive: 0
GGAUAGCACUUGUCCUGAATT against ZFY	inactive: -0.128
AAGUUUUACUCAAUCCAAATT against PHOX2A	inactive: 0.466
AGCUCAACCGGUUUAAUAATT against SLC9A1	inactive: 0
GCGUCAGACUUUUUCACCATT against TIA1	inactive: -0.188
CCACCGUGUUGCAGAUAUATT against SND1	inactive: -0.0434
CUAAACCUCUGAUCUCUUATT against SOCS7	inactive: 0.179
